These are yes or no findings as the source states them, for the method shown. A result given as binding can be weak or reduced; the word gives no strength. Where a sequence is shown, tags or fusion partners need not be part of it.
Tests used:
Assay in all cases: ELISA; plates coated overnight at 4°C with 10 µg/mL PilA, PilB, PilC or HvgA-S10; blocked with 2% BSA in PBS; rGAPDH added at 0, 6.25, 12.5, 25, 50 or 100 µg/mL for 2 h at room temperature; detected with rabbit anti-rGAPDH IgG and HRP anti-rabbit, OD450; both purified
[1] = biological target: His-HvgA S10 (S10 domain of HvgA protein)
[2] = biological target: PilB-6×His (major pilin PilB, Gbs1477) (Group B Streptococcus (Streptococcus agalactiae) strain NEM316)
[3] = biological target: PilC-6×His (pilus accessory protein PilC, Gbs1474) (Group B Streptococcus (Streptococcus agalactiae) strain NEM316)
[4] = biological target: PilA-6×His (pilus associated adhesin PilA, Gbs1478) (Group B Streptococcus (Streptococcus agalactiae) strain NEM316)

Measured: binding

B1: recombinant histidyl-tagged GAPDH (glyceraldehyde 3-phosphate dehydrogenase) of Group B Streptococcus (enzyme, UniProt Q8E3E8 1-336)
chain: MVVKVGINGFGRIGRLAFRRIQNVEGVEVTRINDLTDPNMLAHLLKYDTTQGRFDGTVEVKEGGFEVNGQFVKVSAEREPANIDWATDGVEIVLEATGFFASKEKAEQHIHENGAKKVVITAPGGNDVKTVVFNTNHDILDGTETVISGASCTTNCLAPMAKALQDNFGVKQGLMTTIHAYTGDQMILDGPHRGGDLRRARAGAANIVPNSTGAAKAIGLVIPELNGKLDGAAQRVPVPTGSVTELVATLEKDVTVEEVNAAMKAAANDSYGYTEDPIVSSDIVGISYGSLFDATQTKVQTVDGNQLVKVVSWYDNEMSYTSQLVRTLEYFAKIAK
binds: all assays above

Reference: article PMC3264557
